Measurements reported in the supplement of paper PMC10849652.
This is one part of the list.

Sequences of proteins named here, by UniProt entry; tags and fusion partners are left off. A change or cut given only in a name is not applied to a line headed by its entry.
UniProt Q9UKY1: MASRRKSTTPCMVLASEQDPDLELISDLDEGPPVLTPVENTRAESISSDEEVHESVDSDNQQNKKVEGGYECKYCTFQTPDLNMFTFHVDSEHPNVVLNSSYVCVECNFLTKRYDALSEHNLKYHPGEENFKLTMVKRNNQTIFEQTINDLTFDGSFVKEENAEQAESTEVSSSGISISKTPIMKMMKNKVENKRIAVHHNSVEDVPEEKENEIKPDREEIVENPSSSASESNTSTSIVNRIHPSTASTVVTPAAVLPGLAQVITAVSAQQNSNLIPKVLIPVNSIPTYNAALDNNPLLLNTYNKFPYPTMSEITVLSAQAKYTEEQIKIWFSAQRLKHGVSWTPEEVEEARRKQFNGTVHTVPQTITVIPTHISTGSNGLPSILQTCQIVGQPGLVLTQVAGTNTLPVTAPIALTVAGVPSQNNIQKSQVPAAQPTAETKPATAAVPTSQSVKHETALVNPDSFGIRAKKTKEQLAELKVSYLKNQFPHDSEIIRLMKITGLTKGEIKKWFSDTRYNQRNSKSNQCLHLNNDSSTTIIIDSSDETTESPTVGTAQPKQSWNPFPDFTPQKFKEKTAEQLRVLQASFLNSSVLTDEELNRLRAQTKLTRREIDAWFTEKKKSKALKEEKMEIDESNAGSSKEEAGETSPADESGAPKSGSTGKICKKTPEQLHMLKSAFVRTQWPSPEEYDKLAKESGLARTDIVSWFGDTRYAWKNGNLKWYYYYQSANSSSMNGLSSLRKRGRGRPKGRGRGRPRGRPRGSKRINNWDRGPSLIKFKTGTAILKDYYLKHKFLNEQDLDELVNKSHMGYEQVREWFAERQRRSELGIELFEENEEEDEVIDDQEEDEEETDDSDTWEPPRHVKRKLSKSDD
UniProt O75312: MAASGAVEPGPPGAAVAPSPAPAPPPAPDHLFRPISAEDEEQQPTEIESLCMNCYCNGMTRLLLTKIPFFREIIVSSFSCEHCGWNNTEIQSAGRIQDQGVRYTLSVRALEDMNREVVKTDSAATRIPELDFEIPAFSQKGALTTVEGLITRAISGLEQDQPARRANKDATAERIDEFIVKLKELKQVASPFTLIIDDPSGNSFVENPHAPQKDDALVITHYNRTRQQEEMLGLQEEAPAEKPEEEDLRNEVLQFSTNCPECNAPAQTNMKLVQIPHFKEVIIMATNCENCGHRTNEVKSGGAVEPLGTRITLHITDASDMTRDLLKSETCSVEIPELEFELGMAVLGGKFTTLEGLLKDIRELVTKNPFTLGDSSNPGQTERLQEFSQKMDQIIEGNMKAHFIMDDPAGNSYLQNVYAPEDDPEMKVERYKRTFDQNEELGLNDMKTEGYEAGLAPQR
UniProt Q8NB15: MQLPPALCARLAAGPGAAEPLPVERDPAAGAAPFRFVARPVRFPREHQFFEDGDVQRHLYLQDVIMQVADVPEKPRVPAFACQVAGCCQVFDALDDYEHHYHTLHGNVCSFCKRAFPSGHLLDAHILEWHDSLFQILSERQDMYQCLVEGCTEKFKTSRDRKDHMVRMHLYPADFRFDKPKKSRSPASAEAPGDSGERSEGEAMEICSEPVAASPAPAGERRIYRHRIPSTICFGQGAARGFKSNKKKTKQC
UniProt Q8NF64: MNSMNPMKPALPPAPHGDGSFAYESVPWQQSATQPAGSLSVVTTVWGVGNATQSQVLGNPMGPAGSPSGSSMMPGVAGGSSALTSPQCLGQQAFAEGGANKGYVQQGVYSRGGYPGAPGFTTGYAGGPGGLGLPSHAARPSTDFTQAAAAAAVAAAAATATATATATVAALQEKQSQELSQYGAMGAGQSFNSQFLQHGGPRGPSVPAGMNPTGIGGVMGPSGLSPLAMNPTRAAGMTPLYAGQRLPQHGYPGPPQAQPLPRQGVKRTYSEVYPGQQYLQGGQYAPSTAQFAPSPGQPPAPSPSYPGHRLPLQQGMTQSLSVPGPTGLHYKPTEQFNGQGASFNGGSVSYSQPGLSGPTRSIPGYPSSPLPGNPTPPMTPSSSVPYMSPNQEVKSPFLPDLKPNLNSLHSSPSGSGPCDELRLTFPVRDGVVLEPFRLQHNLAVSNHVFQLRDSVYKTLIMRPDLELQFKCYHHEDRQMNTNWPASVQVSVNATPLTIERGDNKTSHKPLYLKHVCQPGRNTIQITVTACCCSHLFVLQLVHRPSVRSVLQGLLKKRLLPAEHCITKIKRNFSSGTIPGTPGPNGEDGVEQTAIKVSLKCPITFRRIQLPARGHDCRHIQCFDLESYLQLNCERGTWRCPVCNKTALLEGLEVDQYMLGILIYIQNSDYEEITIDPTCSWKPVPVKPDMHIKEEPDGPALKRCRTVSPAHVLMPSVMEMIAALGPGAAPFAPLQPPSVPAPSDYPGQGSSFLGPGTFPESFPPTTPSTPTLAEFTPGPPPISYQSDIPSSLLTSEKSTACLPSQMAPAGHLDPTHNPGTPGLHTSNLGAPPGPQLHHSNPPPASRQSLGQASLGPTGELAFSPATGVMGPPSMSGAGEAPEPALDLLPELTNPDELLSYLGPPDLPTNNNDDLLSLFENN
UniProt Q9UHR6: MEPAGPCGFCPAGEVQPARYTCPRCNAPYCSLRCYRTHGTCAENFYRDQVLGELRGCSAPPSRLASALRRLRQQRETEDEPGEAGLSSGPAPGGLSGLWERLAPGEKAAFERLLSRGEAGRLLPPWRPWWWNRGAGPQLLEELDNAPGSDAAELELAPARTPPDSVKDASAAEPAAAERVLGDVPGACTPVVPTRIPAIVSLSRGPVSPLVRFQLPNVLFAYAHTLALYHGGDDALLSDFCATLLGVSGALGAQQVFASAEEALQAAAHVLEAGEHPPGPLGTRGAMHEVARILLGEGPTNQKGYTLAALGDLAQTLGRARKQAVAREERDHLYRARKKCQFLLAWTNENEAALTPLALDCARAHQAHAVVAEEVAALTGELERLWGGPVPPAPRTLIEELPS
UniProt Q9Y3S2: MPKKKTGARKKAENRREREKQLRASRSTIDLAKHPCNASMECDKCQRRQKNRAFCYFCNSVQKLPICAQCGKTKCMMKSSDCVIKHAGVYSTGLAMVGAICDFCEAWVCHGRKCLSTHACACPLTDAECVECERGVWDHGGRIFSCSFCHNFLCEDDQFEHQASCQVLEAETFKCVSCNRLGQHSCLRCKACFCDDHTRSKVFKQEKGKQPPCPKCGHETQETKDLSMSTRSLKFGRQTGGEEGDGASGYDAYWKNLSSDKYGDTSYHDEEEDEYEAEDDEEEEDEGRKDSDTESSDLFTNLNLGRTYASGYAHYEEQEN
UniProt Q14966: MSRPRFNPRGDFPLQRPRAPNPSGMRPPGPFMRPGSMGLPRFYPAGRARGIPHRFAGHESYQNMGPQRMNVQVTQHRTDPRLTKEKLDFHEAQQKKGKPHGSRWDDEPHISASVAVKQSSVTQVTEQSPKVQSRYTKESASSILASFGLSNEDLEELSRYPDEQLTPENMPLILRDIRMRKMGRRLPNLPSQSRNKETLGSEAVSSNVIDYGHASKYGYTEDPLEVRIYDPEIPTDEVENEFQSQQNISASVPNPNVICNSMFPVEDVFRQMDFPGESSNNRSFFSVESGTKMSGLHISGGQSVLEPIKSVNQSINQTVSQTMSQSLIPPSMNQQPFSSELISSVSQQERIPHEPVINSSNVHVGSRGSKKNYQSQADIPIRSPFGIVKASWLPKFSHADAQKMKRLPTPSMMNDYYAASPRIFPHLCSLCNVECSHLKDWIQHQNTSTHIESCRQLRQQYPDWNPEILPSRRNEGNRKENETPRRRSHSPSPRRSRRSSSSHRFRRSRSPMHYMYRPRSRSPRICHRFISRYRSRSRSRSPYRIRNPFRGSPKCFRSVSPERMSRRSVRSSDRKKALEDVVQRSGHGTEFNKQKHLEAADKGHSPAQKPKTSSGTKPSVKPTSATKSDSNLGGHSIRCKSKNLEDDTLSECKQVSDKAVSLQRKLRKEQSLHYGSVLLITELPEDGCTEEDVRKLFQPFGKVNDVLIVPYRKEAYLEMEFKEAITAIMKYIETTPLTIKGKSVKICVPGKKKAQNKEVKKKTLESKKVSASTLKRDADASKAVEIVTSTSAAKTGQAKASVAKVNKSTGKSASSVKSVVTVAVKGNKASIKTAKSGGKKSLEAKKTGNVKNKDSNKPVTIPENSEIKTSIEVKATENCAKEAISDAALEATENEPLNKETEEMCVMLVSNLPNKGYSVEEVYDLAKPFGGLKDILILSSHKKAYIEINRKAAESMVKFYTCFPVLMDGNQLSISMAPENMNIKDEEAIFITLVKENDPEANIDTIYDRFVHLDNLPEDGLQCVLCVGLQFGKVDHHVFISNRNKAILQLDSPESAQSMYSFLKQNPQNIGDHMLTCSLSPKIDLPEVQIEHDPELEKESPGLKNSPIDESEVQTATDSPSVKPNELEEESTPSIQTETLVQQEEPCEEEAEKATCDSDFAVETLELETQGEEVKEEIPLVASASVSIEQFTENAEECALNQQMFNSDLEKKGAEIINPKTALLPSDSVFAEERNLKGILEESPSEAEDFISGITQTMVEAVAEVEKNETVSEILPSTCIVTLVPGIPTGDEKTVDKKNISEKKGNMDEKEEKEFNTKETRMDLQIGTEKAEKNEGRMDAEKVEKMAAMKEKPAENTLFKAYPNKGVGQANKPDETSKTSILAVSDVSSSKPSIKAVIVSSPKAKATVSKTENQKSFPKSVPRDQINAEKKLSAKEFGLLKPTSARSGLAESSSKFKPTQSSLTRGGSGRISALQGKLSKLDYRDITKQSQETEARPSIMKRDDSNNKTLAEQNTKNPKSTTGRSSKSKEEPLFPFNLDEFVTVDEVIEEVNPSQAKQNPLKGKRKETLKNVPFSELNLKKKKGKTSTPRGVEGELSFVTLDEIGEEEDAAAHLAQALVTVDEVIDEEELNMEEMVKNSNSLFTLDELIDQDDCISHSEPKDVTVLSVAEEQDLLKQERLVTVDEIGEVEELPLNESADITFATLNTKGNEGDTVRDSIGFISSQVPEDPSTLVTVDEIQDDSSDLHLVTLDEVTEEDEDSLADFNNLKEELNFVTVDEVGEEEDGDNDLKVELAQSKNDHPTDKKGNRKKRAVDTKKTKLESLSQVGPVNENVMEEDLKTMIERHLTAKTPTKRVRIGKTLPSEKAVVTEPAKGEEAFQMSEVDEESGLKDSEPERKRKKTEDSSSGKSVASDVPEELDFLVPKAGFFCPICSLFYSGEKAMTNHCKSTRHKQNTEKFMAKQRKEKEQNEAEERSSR
UniProt Q14202: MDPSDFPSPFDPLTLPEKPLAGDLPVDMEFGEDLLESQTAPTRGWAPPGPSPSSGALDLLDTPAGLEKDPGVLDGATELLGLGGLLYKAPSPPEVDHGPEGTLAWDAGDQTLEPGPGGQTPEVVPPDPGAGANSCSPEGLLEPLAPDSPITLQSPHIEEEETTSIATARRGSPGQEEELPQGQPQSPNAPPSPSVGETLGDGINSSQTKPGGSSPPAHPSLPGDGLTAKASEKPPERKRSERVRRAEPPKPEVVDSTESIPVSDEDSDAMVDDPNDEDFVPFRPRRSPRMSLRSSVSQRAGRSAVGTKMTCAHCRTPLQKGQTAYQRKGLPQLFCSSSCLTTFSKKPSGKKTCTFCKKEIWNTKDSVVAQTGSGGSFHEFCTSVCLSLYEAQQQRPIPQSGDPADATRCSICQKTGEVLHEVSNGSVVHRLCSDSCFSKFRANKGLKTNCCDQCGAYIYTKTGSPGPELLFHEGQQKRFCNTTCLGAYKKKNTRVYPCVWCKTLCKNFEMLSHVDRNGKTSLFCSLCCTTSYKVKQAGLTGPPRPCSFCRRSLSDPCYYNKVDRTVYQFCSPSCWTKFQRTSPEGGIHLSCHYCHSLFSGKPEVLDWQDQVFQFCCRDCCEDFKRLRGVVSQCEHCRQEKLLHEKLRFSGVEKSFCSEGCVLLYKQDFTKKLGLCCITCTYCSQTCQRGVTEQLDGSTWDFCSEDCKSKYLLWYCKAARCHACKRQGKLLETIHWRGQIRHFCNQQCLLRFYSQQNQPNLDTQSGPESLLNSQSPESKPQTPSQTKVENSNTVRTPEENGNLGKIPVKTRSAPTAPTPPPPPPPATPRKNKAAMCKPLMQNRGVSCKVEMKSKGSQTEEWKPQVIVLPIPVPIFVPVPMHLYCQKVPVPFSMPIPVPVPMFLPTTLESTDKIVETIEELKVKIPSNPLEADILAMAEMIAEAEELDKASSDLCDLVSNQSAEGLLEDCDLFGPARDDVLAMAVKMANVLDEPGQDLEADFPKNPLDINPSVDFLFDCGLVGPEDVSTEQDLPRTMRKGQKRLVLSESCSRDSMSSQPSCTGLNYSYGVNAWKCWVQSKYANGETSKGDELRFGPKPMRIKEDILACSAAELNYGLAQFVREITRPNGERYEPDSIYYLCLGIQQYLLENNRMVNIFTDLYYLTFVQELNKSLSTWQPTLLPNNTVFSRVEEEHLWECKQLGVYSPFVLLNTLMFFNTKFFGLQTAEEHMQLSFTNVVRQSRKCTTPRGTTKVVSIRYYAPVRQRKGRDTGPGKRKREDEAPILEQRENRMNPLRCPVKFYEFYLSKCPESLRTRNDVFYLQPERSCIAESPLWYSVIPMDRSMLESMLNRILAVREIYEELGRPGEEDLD

How the values were obtained:
Test in all cases: log2 fold change, soluble protein after heating vs DMSO (PISA); higher = thermal stabilisation; K562 lysate, 10 uM; active = over 0.2 and 3.5 SD of the protein, either way, in both replicates (recomputed)
[1] = compound: CS(=O)(=O)CCNCc1ccc(-c2ccc3ncnc(Nc4ccc(OCc5cccc(F)c5)c(Cl)c4)c3c2)o1 [lapatinib]
Outline: (§1)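 K562 pellets were dounce-homogenised in PBS pH 7.4 containing 1 mM MgCl2, and the crude extract, at 1 mg/mL protein, was exposed to 10 μM compound for 30 min. Aliquots were heated for 3 min across 48°C-58°C, pooled, brought to 0.5% NP-40 at 4°C and spun at 21,000xg for 90 min, with the supernatant taken as soluble protein. TMTpro 16plex LC-MS/MS with equalised channel sums quantified that protein. Values are log-two fold changes in thermal stability relative to solvent controls, taken from duplicates.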

[2] = compound: CS(=O)(=O)N1CCN(Cc2cc3nc(-c4cccc5[nH]ncc45)nc(N4CCOCC4)c3s2)CC1 [pictilisib]
Outline: as §1

[3] = compound: C[C@@H](Oc1cc(-c2cnn(C3CCNCC3)c2)cnc1N)c1c(Cl)ccc(F)c1Cl [crizotinib]
Outline: as §1

[4] = compound: C[C@H](C1=CC=C(C=C1)C(=O)NC2=C3C=CNC3=NC=C2)N
Outline: as §1

[5] = compound: C[C@H](Nc1ncnc2nc[nH]c12)c1cc2cccc(Cl)c2c(=O)n1-c1ccccc1 [duvelisib]
Outline: as §1

[6] = compound: Cc1cc(Nc2cc(CN3CCOCC3)c3nc(C)c(Cc4ccc(Cl)cc4F)n3n2)n[nH]1 [gandotinib]
Outline: as §1

[7] = compound: Cc1cc(Nc2cc(N3CCN(C)CC3)nc(Sc3ccc(NC(=O)C4CC4)cc3)n2)n[nH]1 [tozasertib]
Outline: as §1

[8] = compound: Cc1ccc(-n2nc(C(C)(C)C)cc2NC(=O)Nc2ccc(OCCN3CCOCC3)c3ccccc23)cc1 [doramapimod]
Outline: as §1

[9] = compound: Cc1ccc(NC(=O)c2ccc(CN3CC[C@H](N(C)C)C3)c(C(F)(F)F)c2)cc1Nc1nccc(-c2cncnc2)n1 [bafetinib]
Outline: as §1

[10] = compound: Cc1cccc(CC(=O)N2CCc3c2ccc(-c2cn(C)c4ncnc(N)c24)c3F)n1
Outline: as §1

[11] = compound: Cc1cn(-c2cc(NC(=O)c3ccc(C)c(Nc4nccc(-c5cccnc5)n4)c3)cc(C(F)(F)F)c2)cn1 [nilotinib]
Outline: as §1

[12] = compound: Cc1nc(Nc2n[nH]c3c2CN(C(=O)N[C@H](CN(C)C)c2ccccc2)C3(C)C)c2sccc2n1
Outline: as §1

[13] = compound: Cc1nc(Nc2ncc(C(=O)Nc3c(C)cccc3Cl)s2)cc(N2CCN(CCO)CC2)n1 [dasatinib]
Outline: as §1

[14] = compound: Cc1ncc(-c2ccnc(Nc3ccc(S(C)(=O)=O)cc3)n2)n1C(C)C
Outline: as §1

[15] = compound: Cn1cc(-c2ccc3c(c2)CCN3C(=O)Cc2cccc(C(F)(F)F)c2)c2c(N)ncnc21
Outline: as §1

[16] = compound: Cn1cc(CNCC2CCN(c3ncc(C(=O)NO)cn3)CC2)c2ccccc21 [quisinostat]
Outline: as §1

[17] = compound: Cn1cncc1[C@@](N)(c1ccc(Cl)cc1)c1ccc2c(c1)c(-c1cccc(Cl)c1)cc(=O)n2C [tipifarnib]
Outline: as §1

[18] = compound: NC(=O)Nc1cc(-c2cccc(F)c2)sc1C(=O)N[C@H]1CCCNC1
Outline: as §1

[19] = compound: NC(=O)c1cnc(N[C@@H]2CCCC[C@@H]2N)nc1Nc1cccc(-n2nccn2)c1
Outline: as §1

[20] = compound: NC1(c2ccc(-c3nc4ccn5c(=O)[nH]nc5c4cc3-c3ccccc3)cc2)CCC1
Outline: as §1

Target	log2 fold change [1]	log2 fold change [2]	log2 fold change [3]	log2 fold change [4]	log2 fold change [5]	log2 fold change [6]	log2 fold change [7]	log2 fold change [8]	log2 fold change [9]	log2 fold change [10]	log2 fold change [11]	log2 fold change [12]	log2 fold change [13]	log2 fold change [14]	log2 fold change [15]	log2 fold change [16]	log2 fold change [17]	log2 fold change [18]	log2 fold change [19]	log2 fold change [20]
ZMPSTE24 (UniProt O75844)	inactive: 0.023	inactive: 0.004	inactive: -0.045	inactive: -0.239	inactive: 0.028	inactive: 0.199	inactive: 0.004	inactive: 0.01	inactive: -0.026	inactive: 0.113	inactive: 0.03	inactive: -0.024	inactive: 0.029	inactive: -0.014	inactive: -0.035	inactive: -0.116	inactive: -0.026	inactive: 0	inactive: 0.004	inactive: -0.013
ZHX1 (UniProt Q9UKY1)	inactive: 0.014	inactive: 0.003	inactive: 0.018	active: -0.57	inactive: 0.038	active: 0.475	inactive: -0.09	inactive: -0.013	inactive: -0.08	active: 0.431	inactive: 0.011	inactive: -0.012	inactive: 0	inactive: 0.06	inactive: -0.096	inactive: -0.035	inactive: 0.007	inactive: 0.039	inactive: -0.047	inactive: -0.011
ZPR1 (UniProt O75312)	inactive: -0.007	inactive: 0.001	inactive: 0.04	inactive: -0.008	inactive: 0.013	inactive: -0.003	inactive: 0.021	inactive: 0.002	inactive: 0.021	inactive: -0.015	inactive: -0.017	inactive: -0.001	inactive: 0.019	inactive: -0.027	inactive: -0.035	inactive: 0.014	inactive: 0.009	inactive: -0.035	inactive: 0.012	inactive: -0.011
ZYX (UniProt Q15942)	inactive: 0.031	inactive: -0.038	inactive: 0.008	inactive: -0.025	inactive: 0.027	inactive: 0.049	inactive: -0.039	inactive: 0.007	inactive: 0.047	inactive: -0.016	inactive: 0.006	inactive: -0.005	inactive: -0.003	inactive: -0.002	inactive: -0.048	inactive: 0.001	inactive: 0.034	inactive: -0.009	inactive: -0.013	inactive: 0.033
ZNF511 (UniProt Q8NB15)	inactive: 0.063	inactive: 0.081	inactive: 0.03	inactive: -0.205	inactive: 0.01	inactive: 0.047	inactive: -0.015	inactive: 0.03	inactive: -0.033	inactive: 0.029	inactive: 0.105	inactive: 0.01	inactive: -0.136	inactive: 0.041	inactive: -0.036	inactive: 0.021	inactive: -0.001	inactive: 0.002	inactive: -0.041	inactive: 0.016
ZMIZ2 (UniProt Q8NF64)	inactive: -0.099	inactive: -0.014	inactive: 0	inactive: -0.083	inactive: 0.005	inactive: -0.058	inactive: 0.063	inactive: 0.064	inactive: 0.025	inactive: 0.05	inactive: 0.06	inactive: -0.018	inactive: -0.054	inactive: -0.013	inactive: 0.264	inactive: -0.086	inactive: -0.043	inactive: 0.065	inactive: 0.169	inactive: -0.078
ZMYM1 (UniProt Q5SVZ6)	inactive: 0.101	inactive: -0.037	inactive: -0.008	active: -0.25	inactive: -0.04	inactive: 0.226	inactive: -0.021	inactive: 0	inactive: -0.097	active: 0.284	inactive: 0.023	inactive: -0.036	inactive: 0.006	inactive: -0.019	inactive: 0.007	inactive: -0.08	inactive: -0.012	inactive: 0.03	inactive: 0.003	inactive: 0.028
ZMYM4 (UniProt Q5VZL5)	inactive: -0.022	inactive: 0.037	inactive: -0.009	inactive: -0.07	inactive: -0.007	inactive: 0.004	inactive: 0.028	inactive: 0.031	inactive: 0.008	inactive: 0.042	inactive: -0.016	inactive: 0.003	inactive: -0.001	inactive: -0.005	inactive: -0.061	inactive: -0.028	inactive: -0.051	inactive: 0.067	inactive: 0.021	inactive: -0.003
ZNHIT2 (UniProt Q9UHR6)	inactive: 0.068	inactive: -0.234	inactive: -0.088	inactive: 0.024	inactive: -0.047	inactive: 0.254	inactive: 0.006	inactive: 0.019	inactive: -0.101	inactive: -0.07	inactive: 0.059	inactive: -0.002	inactive: -0.077	inactive: 0.21	inactive: 0.016	inactive: -0.077	inactive: 0.003	inactive: 0.073	inactive: -0.134	inactive: -0.106
ZNF512 (UniProt Q96ME7)	inactive: -0.05	inactive: 0.037	inactive: -0.051	inactive: 0.039	inactive: -0.039	inactive: 0.066	inactive: -0.01	inactive: -0.015	inactive: -0.025	inactive: 0	inactive: -0.039	inactive: 0.053	inactive: -0.008	inactive: 0	inactive: 0.037	inactive: -0.034	inactive: -0.048	inactive: 0.053	inactive: -0.026	inactive: 0.006
ZNF629 (UniProt Q9UEG4)	inactive: -0.043	inactive: -0.012	inactive: 0.009	inactive: 0.021	inactive: 0.028	inactive: 0.001	inactive: -0.065	inactive: -0.005	inactive: 0.03	inactive: 0.143	inactive: -0.007	inactive: 0.019	inactive: 0.023	inactive: 0.012	inactive: 0.017	inactive: 0.036	inactive: 0.048	inactive: -0.021	inactive: -0.033	inactive: -0.022
ZNF598 isoform 3 (UniProt Q86UK7)	inactive: 0.027	inactive: 0.005	inactive: 0.006	inactive: -0.01	inactive: -0.01	inactive: 0.023	inactive: 0.048	inactive: 0.024	inactive: -0.012	inactive: 0.015	inactive: -0.004	inactive: -0.022	inactive: -0.063	inactive: 0.031	inactive: 0.032	inactive: -0.023	inactive: -0.019	inactive: 0.01	inactive: 0.011	inactive: 0.029
ZNF330 (UniProt Q9Y3S2)	inactive: 0.026	inactive: 0.008	inactive: 0.013	inactive: -0.03	inactive: -0.031	inactive: 0.067	inactive: 0	inactive: 0.008	inactive: -0.022	inactive: -0.003	inactive: 0.074	inactive: 0.072	inactive: -0.027	inactive: 0.114	inactive: -0.01	inactive: 0.206	inactive: 0.001	inactive: -0.148	inactive: -0.018	inactive: -0.053
ZNF638 (UniProt Q14966)	inactive: -0.007	inactive: -0.012	inactive: -0.003	inactive: -0.005	inactive: -0.018	inactive: -0.065	inactive: 0.046	inactive: 0.028	inactive: -0.011	inactive: 0.001	inactive: 0.035	inactive: -0.025	inactive: -0.021	inactive: 0.012	inactive: 0.039	inactive: -0.003	inactive: -0.028	inactive: -0.008	inactive: -0.026	inactive: 0.004
ZMYM3 (UniProt Q14202)	inactive: 0.041	inactive: -0.006	inactive: -0.072	inactive: -0.02	inactive: 0.02	inactive: 0.017	inactive: 0.015	inactive: 0.006	inactive: 0.028	inactive: 0.006	inactive: 0	inactive: -0.06	inactive: -0.056	inactive: 0.003	inactive: 0.035	inactive: -0.064	inactive: 0.001	inactive: 0.009	inactive: -0.015	inactive: 0.033
hCG_1984214 (UniProt I3L0E3)	inactive: -0.04	inactive: -0.01	inactive: -0.033	inactive: -0.084	inactive: 0.045	inactive: 0.041	inactive: -0.011	inactive: 0.007	inactive: -0.113	inactive: 0.009	inactive: -0.035	inactive: 0.029	inactive: -0.033	inactive: 0.04	inactive: 0.022	inactive: -0.006	inactive: 0.013	inactive: 0.013	inactive: 0.012	inactive: 0

Some of the entries so far, bar-delimited.
Target | log2 fold change [1] | log2 fold change [2] | log2 fold change [3] | log2 fold change [4] | log2 fold change [5] | log2 fold change [6] | log2 fold change [7] | log2 fold change [8] | log2 fold change [9] | log2 fold change [10] | log2 fold change [11] | log2 fold change [12] | log2 fold change [13] | log2 fold change [14] | log2 fold change [15] | log2 fold change [16] | log2 fold change [17] | log2 fold change [18] | log2 fold change [19] | log2 fold change [20]
ZNHIT2 (UniProt Q9UHR6) | inactive: 0.068 | inactive: -0.234 | inactive: -0.088 | inactive: 0.024 | inactive: -0.047 | inactive: 0.254 | inactive: 0.006 | inactive: 0.019 | inactive: -0.101 | inactive: -0.07 | inactive: 0.059 | inactive: -0.002 | inactive: -0.077 | inactive: 0.21 | inactive: 0.016 | inactive: -0.077 | inactive: 0.003 | inactive: 0.073 | inactive: -0.134 | inactive: -0.106
ZNF512 (UniProt Q96ME7) | inactive: -0.05 | inactive: 0.037 | inactive: -0.051 | inactive: 0.039 | inactive: -0.039 | inactive: 0.066 | inactive: -0.01 | inactive: -0.015 | inactive: -0.025 | inactive: 0 | inactive: -0.039 | inactive: 0.053 | inactive: -0.008 | inactive: 0 | inactive: 0.037 | inactive: -0.034 | inactive: -0.048 | inactive: 0.053 | inactive: -0.026 | inactive: 0.006
